Chains of the proteins cited; added tags and fusions are not shown.
UniProt Q03431, whole entry, looked up: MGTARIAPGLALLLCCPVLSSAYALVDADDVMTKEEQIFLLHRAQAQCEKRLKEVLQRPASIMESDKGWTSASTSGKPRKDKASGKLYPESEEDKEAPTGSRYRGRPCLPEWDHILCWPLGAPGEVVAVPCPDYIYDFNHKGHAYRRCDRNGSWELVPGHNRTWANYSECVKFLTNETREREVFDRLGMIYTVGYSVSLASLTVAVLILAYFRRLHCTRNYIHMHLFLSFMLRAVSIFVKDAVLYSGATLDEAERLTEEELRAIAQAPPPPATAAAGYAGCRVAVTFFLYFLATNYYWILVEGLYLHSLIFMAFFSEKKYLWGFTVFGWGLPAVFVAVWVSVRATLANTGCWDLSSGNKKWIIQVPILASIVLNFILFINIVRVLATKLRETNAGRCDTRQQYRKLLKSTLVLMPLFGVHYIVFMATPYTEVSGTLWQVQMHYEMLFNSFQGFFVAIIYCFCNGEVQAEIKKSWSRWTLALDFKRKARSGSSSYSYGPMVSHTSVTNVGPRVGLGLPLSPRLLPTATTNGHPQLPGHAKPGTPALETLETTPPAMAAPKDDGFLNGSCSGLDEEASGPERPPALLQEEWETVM

About 310 (0.076%) of roughly 410,000 compounds were called active. Inconclusive means that the source gave no clear call. Such entries were picked first, then a sample of the others. The call rests on the fitted dose curve; in most records, active means well fitted activation curve with a large enough effect; inconclusive means small, poorly fitted or top-dose-only effect, or another doubt; inactive means no such curve, though single readings can be large or run the other way. Potencies of inconclusive entries are doubtful fits and often do not repeat.
What follows are compounds tested against Parathyroid hormone/parathyroid hormone-related peptide receptor (Homo sapiens) (UniProt Q03431) (assay: qHTS for PTHR1 Agonists: Primary Screen). Settings: HEK293 GP2 PTHR1 cells, GloSensor cAMP luminescence, 1 h; activation: at 115 µM (top of the series) unless noted; series mostly up to 115 µM.
Outline: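 HEK-293-derived GP2 cells expressing PTHR1 and a GloSensor cAMP reporter, 3,000/well, plated overnight, given luciferin plus IBMX (each 0.5 mM as added) for 1 h at 37 °C, then compound for 1 h at 37 °C. Luminescence was read after 15 min at room temperature.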
COc1ccc(CCNC(=O)COc2ccc(C)nc2[N+](=O)[O-])cc1OC was tested, and the Potency was inconclusive: 28.2 µM [activator, partial curve, poor fit].
For CCN(Cc1nc2cc(Cl)ccc2c(=O)[nH]1)C(=O)COc1ccccc1Cc1ccccc1, the Potency was “inactive”.
For N#Cc1c(-c2ccccc2)nc(SCc2ccc(Cl)cc2)[nH]c1=O, the Potency was “inactive”.
In the case of COc1cc(OC)c(C(=O)N/N=C/c2ccoc2)cc1OC, the Potency is reported as inconclusive: 35.5 µM [activator, full curve, poor fit].
In the case of COc1cc(C(=O)Nc2ccccc2C(=O)NCc2cccnc2)cc(OC)c1OC, the Potency is reported as inconclusive: 25.1 µM [activator, partial curve].
With CCOc1ccc(-c2nnc(SCC(=O)Nc3cccc(OC)c3)nc2-c2ccc(OCC)cc2)cc1 the activation was inconclusive: 41.4% [activator].
CCOc1ccc(C(=O)Nc2ccccc2N2CCN(C(=O)c3ccccc3)CC2)cc1[N+](=O)[O-] was tested, and the Potency was “inactive”.
In the case of O=C(COc1ccc([N+](=O)[O-])cc1)Nc1nc2c(s1)CCCC2, the Potency is reported as inconclusive: 63.1 µM [activator, partial curve, poor fit].
With C(=C\c1ccc2ccccc2n1)/c1ccccc1 the Potency was inconclusive: 112 µM [activator, single point].
In the case of CCOC(CNC(=O)C(=O)Nc1cc2c3c(c1)CCC(=O)N3CCC2)OCC, the activation is reported as inconclusive: 87.5% [activator].
For COc1cc(OC)c(C2CC(=O)N3CN(c4ccccc4)CSC3=C2C#N)cc1OC (centres undefined), the Potency was “inactive”.
With COc1ccccc1NCCC#N the Potency was inconclusive: 3.55 µM [activator, partial curve].
With O=C(NCc1ccc(F)cc1)c1noc2c1CCCC2 the Potency was inconclusive: 6.31 µM [activator, full curve, poor fit].
Nc1nc(=S)[nH]c2c1C1(CCCC1)Cc1ccccc1-2 was tested, and the Potency was inconclusive: 1.78 µM [activator, partial curve, poor fit].
Cc1ccc(C(C)C)c(OCC(O)CN2CCc3ccccc3C2)c1 (centres undefined) was tested, and the Potency was “inactive”.
With COc1cc(C2C(C#N)=C(N)Oc3cc(N)ccc32)cc(OC)c1OC (centres undefined) the Potency was inconclusive: 35.5 µM [activator, single point].
In the case of CC1=CC(=C(C#N)C#N)C=C(C)N1CCC(C)C, the activation is reported as inconclusive: 49.5% [activator].
Cc1ccccc1NS(=O)(=O)c1ccc2[nH]c(=O)[nH]c2c1 was tested, and the Potency was inconclusive: 126 µM [activator, single point].
With O=C(Nc1ccc(F)cc1)C(c1ccccc1)N1CCN(c2cccc(C(F)(F)F)n2)CC1 (centres undefined) the Potency was “inactive”.
For C[C@@H]1CN(C(=O)c2nc3ccc(Cl)cn3c2CN[C@H]2CCCCNC2=O)C[C@H](C)O1, the Potency was inconclusive: 50.1 µM [activator, partial curve, poor fit].
With Cc1ccc(Nc2nc3ccccc3c3nncn23)c(Cl)c1 the Potency was inconclusive: 22.4 µM [activator, single point].
With Cc1csc(/C(=N/OC(=O)c2ccco2)C(N)=O)n1 the Potency was inconclusive: 126 µM [activator, single point].
For CN1C(=O)/C(=C2\SC(=S)N(CCCCCC(=O)O)C2=O)c2ccccc21, the Potency was inconclusive: 141 µM [activator, single point].
With Cc1ccc(N(C(=O)c2csnn2)C(C(=O)NC2CCCCC2)c2cccnc2)cc1C (centres undefined) the Potency was inconclusive: 15.8 µM [activator, single point].
With CCOC(=O)N1CCc2c(sc3c2c(=O)n(-c2ccccc2C(F)(F)F)c(=O)n3Cc2ccccc2C)C1 the activation was inconclusive: 45.7% [activator].
CCOC(=O)C1(Cc2cccc(Cl)c2)CCCN(C(=O)c2ccoc2C)C1 (centres undefined) was tested, and the Potency was inconclusive: 5.62 µM [activator, full curve, poor fit].
In the case of O=C(Cn1c(=O)n(CC2CCC(C(=O)NCCc3ccccc3)CC2)c(=O)c2ccccc21)Nc1ccccc1 (centres undefined), the Potency is reported as inconclusive: 112 µM [activator, single point].
With COc1cccc(NC(=O)COc2ccccc2)c1 the Potency was inconclusive: 25.1 µM [activator, partial curve].
CC[N+]1(CC)CC2=Cc3ccccc3CC2C1 (centres undefined) was tested, and the activation was inconclusive: -3.15% [activator].
In the case of CCC1CCCCN1CCCNC(=O)c1ccc2c(c1)N(Cc1ccc(F)cc1)C(=O)c1ccccc1S2=O (centres undefined), the Potency is reported as inconclusive: 15.8 µM [activator, partial curve, poor fit].
COc1ccc(Cl)cc1NC(=O)N1CCN(c2ccccc2OC)CC1 was tested, and the Potency was inconclusive: 126 µM [activator, single point].
For O=C(Nc1cccs1)Nc1ccc(Br)cc1F, the Potency was “inactive”.
For Cc1nn(C)cc1[C@@H]1C[C@H]2CN(Cc3cccc(Cl)c3)C(=O)[C@]23CCCN13, the activation was inconclusive: 2.64% [activator].
In the case of CCCS(=O)(=O)c1c(S(=O)(=O)CCC)c2cnccn2c1C(=O)c1ccc(Cl)cc1, the Potency is reported as “inactive”.
For CCCCSc1nc2sc3c(c2c(=O)[nH]1)CCC3, the Potency was inconclusive: 31.6 µM [activator, single point].
For C/C(=C\C(=O)c1ccc(Br)cc1)N1CCCCC1, the Potency was inconclusive: 5.62 µM [activator, full curve].
For COc1cccc(/C=C/C(=O)Nc2ccc3nc(N4CCN(C)CC4)cc(C)c3c2)c1OC, the Potency was inconclusive: 50.1 µM [activator, partial curve, poor fit].
C#Cc1ccc([C@H]2C=C(C(=O)NCc3ccccc3)O[C@@H](OCC)[C@@H]2CCCO)cc1 was tested, and the Potency was inconclusive: 6.31 µM [activator, partial curve].
With CCc1nnc(SC(C)C(=O)Nc2nccs2)n1C (centres undefined) the Potency was inconclusive: 126 µM [activator, single point].
For Cc1cc(=O)[nH]c(SCC(=O)Nc2cccc3ccccc23)c1C#N, the activation was inconclusive: 30.8% [activator] [at 57.5 µM].
O=[N+]([O-])c1ccccc1OCCCN1CCc2ccccc2C1 was tested, and the Potency was “inactive”.
For COc1ccc(CNc2ncnc3onc(-c4ccc(F)cc4)c23)cc1, the activation was inconclusive: -54.8% [activator].
Cn1ncc2c(O/N=C(\N)c3ccc(C(F)(F)F)cc3)ncnc21 was tested, and the Potency was inconclusive: 22.4 µM [activator, single point].
In the case of Cc1nc(SCc2ccc([N+](=O)[O-])cc2)n[nH]1, the activation is reported as inconclusive: 37.6% [activator].
In the case of O=C(NC(c1ccccc1)c1ccc2ccccc2n1)C1CCN(CCOc2ccc(Cl)cc2)CC1 (centres undefined), the Potency is reported as “inactive”.
In the case of CCN(Cc1ccncc1)C(=O)c1ccc2c(c1)S(=O)(=O)c1ccccc1C2=O, the Potency is reported as inconclusive: 2.51 µM [activator, full curve].
With O=C1c2ccccc2NC(c2ccc(Br)o2)N1O (centres undefined) the Potency was “inactive”.
With CCOC(=O)COc1cc2c3c(c(=O)oc2cc1C)CCCC3 the Potency was “inactive”.
In the case of O=C(NCC(c1cccs1)N1CCOCC1)c1cc(-c2ccccn2)nc2ccccc12 (centres undefined), the Potency is reported as inconclusive: 15.8 µM [activator, partial curve, poor fit].
For CCCCCCCCNC(=S)NCCN1CCCCC1, the Potency was inconclusive: 79.4 µM [activator, partial curve, poor fit].
In the case of COc1ccccc1C1Nc2ccccc2NC2=C1C(=O)CC(C)(C)C2 (centres undefined), the Potency is reported as “inactive”.
For CC(C)OCCCNC(=O)c1ccccc1NC(=O)C1=CSCCO1, the activation was inconclusive: 33.5% [activator].
In the case of COc1ccc(CNC(=O)Cc2coc3ccc(C)cc23)cc1, the Potency is reported as “inactive”.
For CCOC(=O)c1c(-c2ccccc2)oc2ccc(OCC(=O)NN)cc12, the Potency was inconclusive: 1 µM [activator, full curve, poor fit].
For CCCCN(C(=O)C1=NN(c2ccccc2)C(=O)CC1)c1c(N)n(CC(C)C)c(=O)[nH]c1=O, the activation was inconclusive: 43% [activator].
With C#CCOCCOCCOCCNc1nc(N2CCN(C(=O)CCCCCCCCCCNC(=O)[C@H]([C@@H](C)CC)n3cc(CCCCCN)nn3)CC2)nc(N2CCN(C(=O)CCCCCCCCCCNC(=O)[C@@H]([C@H](C)O)n3cc(C)nn3)CC2)n1 the Potency was inconclusive: 56.2 µM [activator, partial curve, poor fit].
For Cc1ccc(CCNC(=O)c2cnc3c(-c4ccc(F)cc4)c(C)nn3c2C)cc1, the Potency was inconclusive: 50.1 µM [activator, partial curve, poor fit].
In the case of Cc1ccc(C(=O)N2CCN(CCNC(=O)C(=O)Nc3ccc(Cl)cc3)CC2)cc1, the Potency is reported as “inactive”.
For O=C(CNCc1ccccc1)Nc1cccc(Cl)c1Cl, the activation was inconclusive: -41.5% [activator].
For Fc1ccccc1CN1CCC(Cc2ccccc2)CC1, the activation was inconclusive: 40.4% [activator].
For COc1ccccc1CN1CN(S(=O)(=O)c2ccccc2)c2nc3ccccc3nc21, the Potency was “inactive”.
In the case of Cc1ccc(OCCCCN2CCc3ccccc3C2)cc1, the Potency is reported as “inactive”.
For CCOc1ccc(NC(=O)Cn2nc(Cc3ccncc3)c3ccccc3c2=O)cc1, the Potency was inconclusive: 56.2 µM [activator, partial curve, poor fit].
For Cc1ccc(OCCN2CCOCC2)cc1C, the Potency was “inactive”.
With COc1ccc(S(=O)(=O)N2CCN(c3ccc(F)cc3)CC2)cc1C(=O)N1CCCC1 the activation was inconclusive: -48.5% [activator].
With CSc1nc2ccccc2n1Cc1c(Cl)cccc1Cl the Potency was “inactive”.
CC(=O)Nc1nnc2n1CCS2 was tested, and the Potency was inconclusive: 22.4 µM [activator, single point].
In the case of Cc1cc(C)n2nc(C(=O)OCC(=O)Nc3cc(S(=O)(=O)N4CCOCC4)ccc3Cl)nc2n1, the Potency is reported as inconclusive: 3.55 µM [activator, full curve, poor fit].
For CCN(CC)CCOC(=O)c1ccc(N/C=C(/C#N)c2nc(-c3ccc(OC)cc3)cs2)cc1, the activation was inconclusive: 48.1% [activator].
Further: nearly all actives have a fitted effect of over 55% in size.
Potency means the concentration at half of the fitted maximal effect.
